Assay results from article PMC3528715.
Results are given in words; binding and its absence hold for the method and conditions named. Binding seen in cells or lysates may run through a third protein.

Sequences of proteins named here, by UniProt entry; tags and fusion partners are left off.
UniProt P35611: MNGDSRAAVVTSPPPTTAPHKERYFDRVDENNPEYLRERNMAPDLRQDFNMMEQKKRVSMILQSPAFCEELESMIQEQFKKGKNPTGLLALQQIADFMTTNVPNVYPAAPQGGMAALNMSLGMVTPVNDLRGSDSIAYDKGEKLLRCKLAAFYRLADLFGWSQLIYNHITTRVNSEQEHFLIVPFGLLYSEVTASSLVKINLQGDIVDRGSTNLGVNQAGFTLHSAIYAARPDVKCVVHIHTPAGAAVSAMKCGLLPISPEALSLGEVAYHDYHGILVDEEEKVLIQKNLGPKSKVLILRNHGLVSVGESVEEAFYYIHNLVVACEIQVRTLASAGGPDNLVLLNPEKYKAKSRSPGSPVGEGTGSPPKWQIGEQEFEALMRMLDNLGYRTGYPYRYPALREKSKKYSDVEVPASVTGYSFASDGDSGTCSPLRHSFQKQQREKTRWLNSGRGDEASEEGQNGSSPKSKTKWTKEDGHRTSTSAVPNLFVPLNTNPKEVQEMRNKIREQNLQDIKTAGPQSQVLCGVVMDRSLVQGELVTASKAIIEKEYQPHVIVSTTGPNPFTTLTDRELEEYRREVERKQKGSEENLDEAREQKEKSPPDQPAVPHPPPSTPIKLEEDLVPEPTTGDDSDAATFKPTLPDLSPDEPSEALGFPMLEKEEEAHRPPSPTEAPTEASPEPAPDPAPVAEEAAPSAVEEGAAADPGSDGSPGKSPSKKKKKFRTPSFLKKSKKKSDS
UniProt P13569: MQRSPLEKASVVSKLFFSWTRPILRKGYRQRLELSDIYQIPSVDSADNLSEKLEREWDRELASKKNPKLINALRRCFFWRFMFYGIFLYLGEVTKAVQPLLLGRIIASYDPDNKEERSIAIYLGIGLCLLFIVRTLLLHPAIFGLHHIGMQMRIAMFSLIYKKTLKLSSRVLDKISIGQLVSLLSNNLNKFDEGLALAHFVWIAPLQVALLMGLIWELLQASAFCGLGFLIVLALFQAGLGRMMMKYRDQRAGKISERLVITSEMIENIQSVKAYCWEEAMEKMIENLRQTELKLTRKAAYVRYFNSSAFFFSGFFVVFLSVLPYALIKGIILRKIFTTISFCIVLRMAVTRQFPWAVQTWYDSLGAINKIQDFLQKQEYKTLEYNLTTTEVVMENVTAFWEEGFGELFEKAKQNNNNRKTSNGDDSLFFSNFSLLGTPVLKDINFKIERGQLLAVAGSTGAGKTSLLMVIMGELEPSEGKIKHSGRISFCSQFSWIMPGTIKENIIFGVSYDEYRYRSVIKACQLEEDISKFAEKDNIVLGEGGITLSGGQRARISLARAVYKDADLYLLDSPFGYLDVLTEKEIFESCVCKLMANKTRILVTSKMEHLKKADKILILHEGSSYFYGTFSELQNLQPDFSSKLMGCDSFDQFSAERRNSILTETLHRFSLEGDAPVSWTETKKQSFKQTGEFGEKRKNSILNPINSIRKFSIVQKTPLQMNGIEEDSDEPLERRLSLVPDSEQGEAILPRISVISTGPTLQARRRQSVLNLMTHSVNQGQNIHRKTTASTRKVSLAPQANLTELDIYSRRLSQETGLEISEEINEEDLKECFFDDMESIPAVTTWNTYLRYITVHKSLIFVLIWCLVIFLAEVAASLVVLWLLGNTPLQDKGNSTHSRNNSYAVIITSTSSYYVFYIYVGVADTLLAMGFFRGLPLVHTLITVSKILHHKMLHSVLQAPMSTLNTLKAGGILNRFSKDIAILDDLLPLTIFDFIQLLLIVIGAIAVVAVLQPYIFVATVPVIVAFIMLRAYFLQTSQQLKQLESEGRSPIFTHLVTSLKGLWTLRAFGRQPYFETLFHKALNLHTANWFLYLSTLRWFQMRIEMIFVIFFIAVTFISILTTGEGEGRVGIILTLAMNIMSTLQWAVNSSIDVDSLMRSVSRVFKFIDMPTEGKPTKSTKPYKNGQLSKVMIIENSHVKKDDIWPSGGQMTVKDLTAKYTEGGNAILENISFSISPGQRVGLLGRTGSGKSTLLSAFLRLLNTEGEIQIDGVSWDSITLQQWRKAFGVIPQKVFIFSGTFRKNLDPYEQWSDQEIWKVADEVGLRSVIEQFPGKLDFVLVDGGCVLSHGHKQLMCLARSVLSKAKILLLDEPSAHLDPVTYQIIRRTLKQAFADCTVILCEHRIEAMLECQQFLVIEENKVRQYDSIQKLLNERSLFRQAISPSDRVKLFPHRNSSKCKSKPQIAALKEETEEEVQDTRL

What was measured:
[1] = biological target: HA-WT adducin (N-terminal HA-tag) (human) (UniProt P35611); experiment: co-IP; HEK293 T cells co-expressing CFTR and HA-adducin; immunoprecipitated with anti-HA agarose affinity gel, 2 and 24 hours incubation; CFTR detected by blot
[2] = biological target: WT adducin-FLAG (C-terminal FLAG tag) (human) (UniProt P35611); experiment: co-IP; HEK293 T cells co-expressing CFTR and adducin-FLAG; immunoprecipitated with an anti-FLAG antibody; CFTR detected by blot in lysates, flow through and five sequential eluates

With “CFTR (from pcDNA3-CFTR) (from UniProt P13569 1-1480)” as the substance, how does the binding [1] read?
The binding was “no binding”.

And the binding [2]?
Its binding is “no binding”.
